In series [1] the target is MBP-CBF3 (Arabidopsis thaliana) (UniProt Q9M0L0). Briefly: competition with a labelled probe. The following applies: 100-fold excess competitor, EMSA: 10 mM Tris-HCl pH 7.5, 1 mM EDTA, 50 mM NaCl, 5% glycerol, 5 mM DTT, room temperature, 5 uM protein, 100 nM Cy5 probe, recombinant protein.
Series [2] shares this target. The experiment in a line: EMSA. The following applies: 5 uM protein, 100 nM probe, EMSA: 10 mM Tris-HCl pH 7.5, 1 mM EDTA, 50 mM NaCl, 5% glycerol, 5 mM DTT, room temperature, 100 nM Cy5 probe, 100-fold excess competitor, recombinant protein, label: Cy5 (5' on printed strand).

Sequences of proteins named here, by UniProt entry; tags and fusion partners are left off. A change or cut given only in a name is not applied to a line headed by its entry.
UniProt Q9M0L0: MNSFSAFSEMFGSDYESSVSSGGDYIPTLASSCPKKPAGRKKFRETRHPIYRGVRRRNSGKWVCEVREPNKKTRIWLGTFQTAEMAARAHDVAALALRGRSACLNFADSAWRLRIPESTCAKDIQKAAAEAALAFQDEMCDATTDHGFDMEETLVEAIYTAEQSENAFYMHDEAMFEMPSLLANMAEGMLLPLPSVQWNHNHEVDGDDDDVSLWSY

For at least one entry, the source does not settle the construct or the ends of the probe. For some of these results: A negative result means that nothing was seen under these conditions.

“AATATCTGGCCCGACGAAGAAAAAG (double strand) [DREb]”: the binding result in series [1] (DRE1 probe) is “no binding”.
As to “ACAAAAGTAGCCGACAAGTCACCTT (double strand) [DREc]”, the binding result in series [1] (DRE1 probe) is “binds”.
On to “CCGAATGTGACCGACATAGGCCCAA (double strand) [DRE1 competitor]”, for which the binding result in series [1] was “binds”.
Consider “CCGAATGTGACCGACATAGGCCCAA (double strand) [DRE1 probe]”, for which, in series [2], the binding result is reported as “binds”.
For the sequence “CCGAATGTGTGAACCCAAGGCCCAA (double strand) [DRE1m]”, the binding result in series [1] is on record as “no binding”.
Consider “GGACAAATCTCCGACAATCTTCCGG (double strand) [DREd]”, for which the binding result in series [1] (DRE1 probe) was “no binding”.
“TATGGAAGAGGTCGGTCACGTTAAC (double strand) [DRE2 competitor]”: in series [1], the binding result is “binds”.
Regarding “TATGGAAGAGGTCGGTCACGTTAAC (double strand) [DRE2 probe]”, in series [2], the binding result is reported as “binds”.
For “TATGGAAGCGAGGTGTCACGTTAAC (double strand) [DRE2m]”, the binding result in series [1] was “no binding”.
As to “TTGAACTCTTCCGACTTCTCAAAAC (double strand) [DREa]”, the binding result in series [1] (DRE1 probe) is listed as “no binding”.

The values are drawn from PMC10036118.
